Results reported in patent US20170215422A1, “NOVEL CYCLIC DEPSIPEPTIDE DERIVATIVES AND HARMFUL ORGANISM CONTROL AGENTS COMPRISING THE SAME” (priority 2012, published 2017).
Some results were stated once for a whole list of compounds, not compound by compound.

How the values were obtained:
Format in all cases: in vivo
[1] = tested on: Frankliniella occidentalis; test: Pesticidal effect against Frankliniella occidentalis (kidney bean leaf disk); conditions: first instar larvae, 6 days
Aphis gossypii = test: Pesticidal effect against Aphis gossypii (cucumber leaf disk); conditions: first instar larvae, 3 days
Aculops lycopersici = test: Miticidal effect against Aculops lycopersici (potted tomato spray); conditions: spreading treatment of 10 ppm; 3 days
[2] = tested on: Trialeurodes vaporariorum; test: Pesticidal effect against Trialeurodes vaporariorum (cucumber leaf disk with eggs); conditions: 14 days
[3] = tested on: Trigonotylus caelestialium; test: Pesticidal effect against Trigonotylus caelestialium (wheat seedling dipping); conditions: dipping treatment of 50 ppm; second instar larvae; 4 days
[4] = tested on: adult of Tetranychus uruticae (susceptible strain); test: Miticidal effect against adult of Tetranychus uruticae (susceptible strain); conditions: foliage treatment of 10 ppm, adults, 4 days

CCCCCC1OC(=O)C(C)N(C)C(=O)C(CCCCC)OC(=O)C(C)N(C)C(=O)C(CCCCC)OC(=O)C(C)N(C)C(=O)C(CCCCC)OC(=O)CN(C)C1=O (stereo not drawn) [Compound 1]
not less than 80%: death rate ([1]; foliage treatment of 100 ppm) | death rate ([1]; spreading treatment of 5 ppm) | death rate (Aphis gossypii; foliage treatment of 20 ppm) | death rate (Aculops lycopersici) | death rate ([2]; foliage treatment of 10 ppm) | death rate ([2]; spreading treatment of 100 ppm)

CCCCCC1OC(=O)C(C)N(C)C(=O)C(CCCC)OC(=O)C(C)N(C)C(=O)C(CCCCC)OC(=O)C(C)N(C)C(=O)C(CCCCC)OC(=O)C(C)N(C)C1=O (stereo not drawn) [Compound 6]
not less than 80%: death rate ([1]; foliage treatment of 100 ppm) | death rate (Aphis gossypii; foliage treatment of 20 ppm) | death rate (Aculops lycopersici) | death rate ([2]; spreading treatment of 100 ppm)

CCCCCCCCC1OC(=O)C(C)N(C)C(=O)C(CCCCC)OC(=O)C(C)N(C)C(=O)C(CCCCC)OC(=O)C(C)N(C)C(=O)C(CCCCC)OC(=O)C(C)N(C)C1=O (stereo not drawn) [Compound 8]
not less than 80%: death rate ([1]; foliage treatment of 100 ppm) | death rate (Aphis gossypii; foliage treatment of 20 ppm) | death rate ([2]; foliage treatment of 10 ppm) | death rate ([2]; spreading treatment of 100 ppm)

CCCCCCCCCC1OC(=O)C(C)N(C)C(=O)C(CCCCC)OC(=O)C(C)N(C)C(=O)C(CCCCC)OC(=O)C(C)N(C)C(=O)C(CCCCC)OC(=O)C(C)N(C)C1=O (stereo not drawn) [Compound 9]
not less than 80%: death rate (Aphis gossypii; foliage treatment of 20 ppm) | death rate ([2]; spreading treatment of 100 ppm)

CCCCCCC1OC(=O)C(CC)N(C)C(=O)C(CCCCC)OC(=O)C(C)N(C)C(=O)C(CCCCC)OC(=O)C(C)N(C)C(=O)C(CCCCC)OC(=O)C(C)N(C)C1=O (stereo not drawn) [Compound 11]
not less than 80%: death rate ([1]; foliage treatment of 100 ppm) | death rate ([1]; spreading treatment of 5 ppm) | death rate (Aphis gossypii; foliage treatment of 20 ppm) | death rate (Aculops lycopersici) | death rate ([2]; foliage treatment of 10 ppm)

CCCCCCCC1OC(=O)C(CC)N(C)C(=O)C(CCCCC)OC(=O)C(C)N(C)C(=O)C(CCCCC)OC(=O)C(C)N(C)C(=O)C(CCCCC)OC(=O)C(C)N(C)C1=O (stereo not drawn) [Compound 12]
not less than 80%: death rate ([1]; foliage treatment of 100 ppm) | death rate ([1]; spreading treatment of 5 ppm) | death rate (Aphis gossypii; foliage treatment of 20 ppm) | death rate (Aculops lycopersici) | death rate [3] | death rate ([2]; foliage treatment of 10 ppm)

CCCCCCCCC1OC(=O)C(CC)N(C)C(=O)C(CCCCC)OC(=O)C(C)N(C)C(=O)C(CCCCC)OC(=O)C(C)N(C)C(=O)C(CCCCC)OC(=O)C(C)N(C)C1=O (stereo not drawn) [Compound 13]
not less than 80%: death rate ([1]; foliage treatment of 100 ppm) | death rate (Aphis gossypii; foliage treatment of 20 ppm) | death rate ([2]; foliage treatment of 10 ppm)

CCCCCC1OC(=O)C(C)N(C)C(=O)C(CCCCC)OC(=O)C(CCCC)N(C)C(=O)C(CCCCC)OC(=O)C(C)N(C)C(=O)C(CCCCC)OC(=O)C(C)N(C)C1=O (stereo not drawn) [Compound 15]
not less than 80%: death rate ([1]; foliage treatment of 100 ppm) | death rate ([1]; spreading treatment of 5 ppm) | death rate (Aphis gossypii; foliage treatment of 20 ppm) | death rate (Aculops lycopersici) | death rate ([2]; foliage treatment of 10 ppm) | death rate ([2]; spreading treatment of 100 ppm)

CCCCCCCC1OC(=O)C(CCCC)N(C)C(=O)C(CCCCC)OC(=O)C(C)N(C)C(=O)C(CCCCC)OC(=O)C(C)N(C)C(=O)C(CCCCC)OC(=O)C(C)N(C)C1=O [Compound 16, Cycro(-N-Me-L-Nle (R)-Nna-N-Me-L-Ala-(R)-Hep-N-Me-L-Ala-(R)-Hep-N-Me-L-Ala-(R)-Hep-)]
not less than 80%: death rate ([1]; foliage treatment of 100 ppm) | death rate (Aphis gossypii; foliage treatment of 20 ppm) | death rate [3] | death rate ([2]; foliage treatment of 10 ppm) | death rate ([2]; spreading treatment of 100 ppm)

CCCCCCCCCC1OC(=O)C(CCCC)N(C)C(=O)C(CCCCC)OC(=O)C(C)N(C)C(=O)C(CCCCC)OC(=O)C(C)N(C)C(=O)C(CCCCC)OC(=O)C(C)N(C)C1=O (stereo not drawn) [Compound 18]
not less than 80%: death rate (Aphis gossypii; foliage treatment of 20 ppm) | death rate [3] | death rate ([2]; foliage treatment of 10 ppm) | death rate ([2]; spreading treatment of 100 ppm)

CCCCCC1OC(=O)C(C)N(C)C(=O)C(CCCCC)OC(=O)C(CCC)N(C)C(=O)C(CCCCC)OC(=O)C(C)N(C)C(=O)C(CCCCC)OC(=O)C(C)N(C)C1=O (stereo not drawn) [Compound 19]
not less than 80%: death rate ([1]; foliage treatment of 100 ppm) | death rate (Aphis gossypii; foliage treatment of 20 ppm) | death rate (Aculops lycopersici) | death rate ([2]; foliage treatment of 10 ppm) | death rate ([2]; spreading treatment of 100 ppm)

CCCCCCC1OC(=O)C(CCC)N(C)C(=O)C(CCCCC)OC(=O)C(C)N(C)C(=O)C(CCCCC)OC(=O)C(C)N(C)C(=O)C(CCCCC)OC(=O)C(C)N(C)C1=O (stereo not drawn) [Compound 20]
not less than 80%: death rate (Aphis gossypii; spreading treatment of 5 ppm) | death rate [3] | death rate ([2]; foliage treatment of 10 ppm)

CCCCCCCCC1OC(=O)C(CCC)N(C)C(=O)C(CCCCC)OC(=O)C(C)N(C)C(=O)C(CCCCC)OC(=O)C(C)N(C)C(=O)C(CCCCC)OC(=O)C(C)N(C)C1=O (stereo not drawn) [Compound 22]
not less than 80%: death rate (Aphis gossypii; foliage treatment of 20 ppm) | death rate ([2]; foliage treatment of 10 ppm) | death rate ([2]; spreading treatment of 100 ppm)

CCCCCCCCCC1OC(=O)C(CCC)N(C)C(=O)C(CCCCC)OC(=O)C(C)N(C)C(=O)C(CCCCC)OC(=O)C(C)N(C)C(=O)C(CCCCC)OC(=O)C(C)N(C)C1=O (stereo not drawn) [Compound 23]
not less than 80%: death rate (Aphis gossypii; foliage treatment of 20 ppm) | death rate ([2]; foliage treatment of 10 ppm) | death rate ([2]; spreading treatment of 100 ppm)

CCCCCCCCC[C@H]1OC(=O)[C@H](C(C)C)N(C)C(=O)[C@@H](CCCCC)OC(=O)[C@H](C)N(C)C(=O)[C@H](CCCCC)OC(=O)[C@H](C)N(C)C(=O)[C@@H](CCCCC)OC(=O)[C@H](C)N(C)C1=O [Compound 26]
not less than 80%: death rate ([2]; spreading treatment of 100 ppm)

CCCCC[C@@H]1OC(=O)[C@H](C)N(C)C(=O)[C@@H](CCCCC)OC(=O)[C@H](C)N(C)C(=O)[C@@H](CCCCC)OC(=O)[C@H](CC(C)C)N(C)C(=O)[C@@H](CCCCC)OC(=O)[C@H](C)N(C)C1=O [Compound 27]
not less than 80%: death rate ([1]; foliage treatment of 100 ppm) | death rate (Aphis gossypii; foliage treatment of 20 ppm) | death rate [3]

CCCCCCC[C@H]1OC(=O)[C@H](CC(C)C)N(C)C(=O)[C@@H](CCCCC)OC(=O)[C@H](C)N(C)C(=O)[C@H](CCCCC)OC(=O)[C@H](C)N(C)C(=O)[C@@H](CCCCC)OC(=O)[C@H](C)N(C)C1=O [Compound 28]
not less than 80%: death rate ([1]; foliage treatment of 100 ppm) | death rate (Aphis gossypii; foliage treatment of 20 ppm) | death rate [3] | death rate ([2]; foliage treatment of 10 ppm) | death rate ([2]; spreading treatment of 100 ppm)

CCCCCCCC[C@H]1OC(=O)[C@H](CC(C)C)N(C)C(=O)[C@@H](CCCCC)OC(=O)[C@H](C)N(C)C(=O)[C@H](CCCCC)OC(=O)[C@H](C)N(C)C(=O)[C@@H](CCCCC)OC(=O)[C@H](C)N(C)C1=O [Compound 29]
not less than 80%: death rate (Aphis gossypii; foliage treatment of 20 ppm) | death rate ([2]; foliage treatment of 10 ppm)

CCCCCCCCC[C@H]1OC(=O)[C@H](CC(C)C)N(C)C(=O)[C@@H](CCCCC)OC(=O)[C@H](C)N(C)C(=O)[C@H](CCCCC)OC(=O)[C@H](C)N(C)C(=O)[C@@H](CCCCC)OC(=O)[C@H](C)N(C)C1=O [Compound 30]
not less than 80%: death rate ([2]; foliage treatment of 10 ppm) | death rate ([2]; spreading treatment of 100 ppm)

CCCCCC1OC(=O)C(CC(C)C)N(C)C(=O)C(CCCCC)OC(=O)C(CC(C)C)N(C)C(=O)C(CCCCC)OC(=O)C(CC(C)C)N(C)C(=O)C(CCCCC)OC(=O)CN(C)C1=O (stereo not drawn) [Compound 33]
not less than 80%: death rate (Aphis gossypii; spreading treatment of 5 ppm) | death rate (Aculops lycopersici) | death rate [3]

CCCCCC1OC(=O)C(CCC)N(C)C(=O)C(CCCCC)OC(=O)CN(C)C(=O)C(CCCCC)OC(=O)C(CCC)N(C)C(=O)C(CCCCC)OC(=O)CN(C)C1=O (stereo not drawn) [Compound 35]
not less than 80%: death rate ([1]; foliage treatment of 100 ppm)

CCCCCC1OC(=O)C(C)N(C)C(=O)C(CCCCC)OC(=O)CN(C)C(=O)C(CCCCC)OC(=O)C(C)N(C)C(=O)C(CCCCC)OC(=O)CN(C)C1=O (stereo not drawn) [Compound 37]
not less than 80%: death rate ([2]; foliage treatment of 10 ppm) | death rate ([2]; foliage treatment of 20 ppm)

CCCCCCCC1OC(=O)C(C)N(C)C(=O)C(CCCCCCC)OC(=O)C(C)N(C)C(=O)C(CCCCCCC)OC(=O)C(C)N(C)C(=O)C(CCCCCCC)OC(=O)C(C)N(C)C1=O (stereo not drawn) [Compound 51]
not less than 80%: death rate (Aphis gossypii; spreading treatment of 5 ppm)

CCCCCC1OC(=O)C(C)N(C)C(=O)C(CCCCC)OC(=O)C(C)N(C)C(=O)C(CC(C)C)OC(=O)C(C)N(C)C(=O)C(CCCCC)OC(=O)C(C)N(C)C1=O (stereo not drawn) [Compound 61]
not less than 80%: death rate (Aphis gossypii; spreading treatment of 5 ppm)

CCCCCC1OC(=O)C(C)N(C)C(=O)C(CC(C)C)OC(=O)C(CC(C)C)N(C)C(=O)C(CCCCC)OC(=O)C(C)N(C)C(=O)C(CCCCC)OC(=O)C(C)N(C)C1=O (stereo not drawn) [Compound 62]
not less than 80%: death rate (Aphis gossypii; spreading treatment of 5 ppm)

CCCCCC1OC(=O)C(C)N(C)C(=O)C(CCCCC)OC(=O)C(C)N(C)C(=O)C(CCCCC)OC(=O)C(C)N(C)C(=O)C(CC2CC2)OC(=O)CN(C)C1=O (stereo not drawn) [Compound 63]
not less than 80%: death rate (Aphis gossypii; foliage treatment of 20 ppm)

CCCCCC1OC(=O)C(C)N(C)C(=O)C(CC2CC2)OC(=O)C(CC(C)C)N(C)C(=O)C(CCCCC)OC(=O)C(C)N(C)C(=O)C(CCCCC)OC(=O)C(C)N(C)C1=O (stereo not drawn) [Compound 64]
not less than 80%: miticidal rate [4] | death rate (Aphis gossypii; spreading treatment of 5 ppm)

CCCCCC1OC(=O)C(C)N(C)C(=O)C(CCCCC)OC(=O)C(C)N(C)C(=O)C(CC2CC2)OC(=O)C(C)N(C)C(=O)C(CCCCC)OC(=O)C(C)N(C)C1=O (stereo not drawn) [Compound 65]
not less than 80%: death rate (Aphis gossypii; foliage treatment of 20 ppm)

CCCCCC1OC(=O)C(CCC)N(C)C(=O)C(CCCCC)OC(=O)C(CC(C)C)N(C)C(=O)C(CCCCC)OC(=O)C(CCC)N(C)C(=O)C(CCCCC)OC(=O)CN(C)C1=O (stereo not drawn) [Compound 66]
not less than 80%: death rate ([1]; foliage treatment of 100 ppm) | death rate (Aphis gossypii; spreading treatment of 5 ppm) | death rate [3] | death rate ([2]; foliage treatment of 10 ppm) | death rate ([2]; spreading treatment of 100 ppm)
